# In PMC12431657, “Discovery and mechanistic insights of dibenzoylmethane as a broad spectrum inhibitor of coronavirus” (PLOS Pathogens, 2025):
# Structures can show the parent of a compound that is named as a salt. Where two headings read alike, the source gives them in different places. In all, about 3,300 compounds went through this assay and about 95 (3%) showed an effect of 50% or more. The list shows a part of the results. Numbered stars: 1 amine (or outer) side, 2 acyl side, 3 side chain; on linkers, the order of the positions; unused ones are H or OH. Square brackets hold non-standard residues; d marks the D form. Peptide text beside a SMILES is read from it. X1 = CC[C@@H](C)[C@@H](O[*:1])C(=O)[*:2]; NMeVal(β-OH) = CN[C@H](C(=O)O)C(C)(C)O; NMeF = CN[C@@H](Cc1ccccc1)C(=O)O; aIle = CC[C@@H](C)[C@H](N)C(=O)O; NMeV = CN[C@H](C(=O)O)C(C)C
# Tested on: HCoV-229E
# Design: species or system Huh-7; HTS, protection from HCoV-229E induced cell death, luminescent cell viability (CellCounting-Lite 2.0), inhibition rate
compound,measurement,setting,value
C[C@@]12C[C@@H](c3ccoc3)OC(=O)[C@@H]1CC[C@]1(C)[C@H]2[C@@H]2C=C[C@@]1(O)C(=O)O2 [Columbin],229E Inhibition rate,"24 h, 10 µM; inhibitor",9.6%
C/C=C(/C)C(=O)O[C@H]1[C@@H]2[C@H](C)C(=O)O[C@@H]2C[C@@H](C)[C@@H]2C=CC(=O)[C@]21C [Brevilin A],229E Inhibition rate,"24 h, 10 µM; inhibitor",29.3%
CCN1C[C@]2(C)CC[C@H](OC)[C@@]34C1[C@]1(OCO[C@@]15C[C@H](OC)[C@H]1C[C@]3(O)[C@@H]5[C@H]1OC)[C@@H](OC(C)=O)[C@H]24 [Deltaline],229E Inhibition rate,"24 h, 10 µM; inhibitor",2.6%
COC1=C[C@@H]2[C@@H]3Cc4ccc(OC)c(O)c4[C@]2(CCN3C)CC1=O [Sinomenine],229E Inhibition rate,"24 h, 10 µM, inhibitor",23.8%
O=c1ccc2ccc3occc3c2o1 [Angelicin],229E Inhibition rate,"24 h, 10 µM; inhibitor",9.8%
COc1ccc(/C=C/c2cc(OC)cc(OC)c2)cc1 [trans-Trimethoxyresveratrol],229E Inhibition rate,"24 h, 10 µM; inhibitor",38.6%
C[C@@H]1CC[C@@]2(OC1)O[C@H]1[C@@H](O)[C@H]3[C@@H]4CC[C@H]5C[C@@H](O[C@@H]6O[C@H](CO)[C@H](O[C@@H]7O[C@H](CO)[C@@H](O)[C@H](O[C@@H]8OC[C@@H](O)[C@H](O)[C@H]8O)[C@H]7O[C@@H]7O[C@H](CO)[C@H](O)[C@H](O[C@@H]8O[C@H](CO)[C@@H](O)[C@H](O)[C@H]8O)[C@H]7O)[C@H](O)[C@H]6O)[C@H](O)C[C@]5(C)[C@H]4CC[C@]3(C)[C@H]1[C@@H]2C [Digitonin],229E Inhibition rate,"24 h post infection, 1 h compound pre-incubation; 10 µM; inhibitor",13.7%
"Oc1c(Br)cccc1Br [2,6-Dibromophenol]",229E Inhibition rate,"24 h, 10 µM; inhibitor",21.2%
CC(C)[C@@H]1NC(=O)[C@H](C)OC(=O)[C@@H](C(C)C)NC(=O)[C@@H](C(C)C)OC(=O)[C@H](C(C)C)NC(=O)[C@H](C)OC(=O)[C@@H](C(C)C)NC(=O)[C@@H](C(C)C)OC(=O)[C@H](C(C)C)NC(=O)[C@H](C)OC(=O)[C@@H](C(C)C)NC(=O)[C@@H](C(C)C)OC1=O [Valinomycin],229E Inhibition rate,"24 h, 10 µM; inhibitor",90.8%
C[C@H]1CCCC(=O)CCC/C=C/c2cc(O)cc(O)c2C(=O)O1 [Zearalenone],229E Inhibition rate,"24 h, 10 µM; inhibitor",43.3%
C[C@H]1CCC[C@@H](O)CCCCCc2cc(O)cc(O)c2C(=O)O1 [Beta-Zearalanol],229E Inhibition rate,"24 h, 10 µM; inhibitor",0%
CC(=O)OC(C)(C)/C=C/C(=O)[C@](C)(O)[C@H]1[C@H](O)C[C@@]2(C)[C@@H]3CC=C4[C@H](C[C@H](O)C(=O)C4(C)C)[C@]3(C)C(=O)C[C@]12C [Cucurbitacin B],229E Inhibition rate,"24 h, 10 µM; inhibitor",36.8%
CC1=C[C@@H]2C(=O)[C@]3(C=C(C)[C@H](O)[C@@]3(O)[C@@H]1O)[C@H](C)C[C@@H]1[C@H]2C1(C)C [20-Deoxyingenol],229E Inhibition rate,"24 h, 10 µM; inhibitor",10.8%
CC(C)=CCCC1=CC(=O)c2c(O)ccc(O)c2C1=O [Deoxyshikonin],229E Inhibition rate,"24 h, 10 µM; inhibitor",9.8%
CCC(=O)c1cc2c(cc1O)OCO2 [Kakuol],229E Inhibition rate,"24 h, 10 µM; inhibitor",8.6%
N[C@@H](CNC(=O)C(=O)O)C(=O)O [Dencichine],229E Inhibition rate,"24 h, 10 µM; inhibitor",6.8%
CCN1C[C@]2(COC)[C@H](O)C[C@H](OC)[C@@]34[C@@H]5C[C@]6(O)[C@@H](OC)C[C@@](OC(C)=O)([C@H]5[C@H]6OC(=O)c5ccccc5)[C@@H]([C@H](OC)[C@H]23)[C@@H]14 [Indaconitine],229E Inhibition rate,"24 h, 10 µM; inhibitor",10.3%
Cc1ccc(C=O)cc1 [p-Tolualdehyde],229E Inhibition rate,"24 h, 10 µM; inhibitor",23.1
COC1=C[C@@H]2[C@@H]3Cc4ccc(OC)c(O)c4[C@]2(CCN3C)CC1=O [Sinomenine hydrochloride],229E Inhibition rate,"24 h, 10 µM, inhibitor",38.1%
Cc1cc(=O)[nH]c(=O)[nH]1 [6-Methyluracil],229E Inhibition rate,"24 h, 10 µM; inhibitor",41.3
C=C1[C@H](OC(=O)c2ccccc2)C[C@H]2[C@@H](/C=C(\C)C(=O)[C@@]3(OC(C)=O)C[C@H](C)[C@H](OC(=O)c4ccccc4)[C@@H]3[C@H]1OC(C)=O)C2(C)C [Euphorbia Factor L2],229E Inhibition rate,"24 h, 10 µM; inhibitor",27.4%
C/C=C1\C[C@@H](C)[C@](O)(CO)C(=O)OCC2=CC[N+]3([O-])CC[C@@H](OC1=O)[C@@H]23 (some centres unmarked) [Usaramine N-oxide],229E Inhibition rate,"24 h, 10 µM; inhibitor",19.1%
CCN1C[C@]2(COC)CC[C@H](OC)[C@]34C1[C@H](C[C@H]23)[C@@]1(O)C[C@H](OC)[C@H]2C[C@@H]4[C@@H]1[C@H]2O [Talatisamine],229E Inhibition rate,"24 h, 10 µM; inhibitor",24%
CC(C)=CCC/C(C)=C/CC/C(C)=C/CC[C@]1(C)CCc2cc(O)c(C)c(C)c2O1 [γ-Tocotrienol],229E Inhibition rate,"24 h, 10 µM; inhibitor",20.7
C[C@]12CC[C@@H](O)C[C@@H]1CC[C@@H]1[C@@H]2CC[C@]2(C)C(=O)CC[C@@H]12 [Androsterone],229E Inhibition rate,"24 h, 10 µM; inhibitor",52.3%
COc1ccc(C=O)cc1OC [Veratraldehyde],229E Inhibition rate,"24 h, 10 µM; inhibitor",17.4%
CO[C@H]1CC[C@@H](O[C@H]2C[C@H]([C@]3(C)CC[C@]4(C[C@H](O)[C@@H](C)[C@@H]([C@@H](C)/C=C(\C)C(=O)[C@H](C)C[C@H](C)C(=O)O)O4)O3)O[C@]3(O[C@@H]([C@H]4O[C@@](O)(CO)[C@H](C)C[C@@H]4C)C[C@@H]3C)[C@@H]2C)O[C@@H]1C [Dianemycin],229E Inhibition rate,"24 h, 10 µM, inhibitor",1%
C[C@]12CC[C@H](O)C[C@H]1CC[C@@H]1[C@@H]2[C@H](O)C[C@]2(C)[C@@H](c3ccc(=O)oc3)CC[C@]12O [Gamabufotalin],229E Inhibition rate,"24 h, 10 µM; inhibitor",25.5%
O=c1ccc2c(O)c3ccoc3cc2o1 [Bergaptol],229E Inhibition rate,"24 h, 10 µM; inhibitor",33.3%
CC(C)=CCC[C@H](C(=O)O)[C@H]1CC[C@]2(C)C3=C(CC[C@@]12C)[C@@]1(C)CCC(=O)C(C)(C)[C@H]1CC3 [β-Elemonic acid],229E Inhibition rate,"24 h, 10 µM; inhibitor",15.7%
COC(=O)C1=CCCNC1 [Guvacoline (hydrochloride)],229E Inhibition rate,"24 h, 10 µM; inhibitor",8.9%
C[C@]12CCC(=O)C=C1CC[C@@H]1[C@@H]2C(=O)C[C@]2(C)C(=O)CC[C@@H]12 [Adrenosterone],229E Inhibition rate,"24 h, 10 µM; inhibitor",14.3%
O=Cc1ccc[nH]1 [Pyrrole-2-carboxaldehyde],229E Inhibition rate,"24 h, 10 µM; inhibitor",21.6
O=C(O)CCCCCCCCCO [10-Hydroxydecanoic acid],229E Inhibition rate,"24 h, 10 µM; inhibitor",13.7%
O=C(O)c1cc2c(c3c1c([N+](=O)[O-])cc1ccccc13)OCO2 [Aristolochic acid B],229E Inhibition rate,"24 h, 10 µM; inhibitor",0%
CC[C@@]1(O)C(=O)OCc2c1cc1n(c2=O)Cc2cc3c(OC)cccc3nc2-1 [9-Methoxycamptothecin],229E Inhibition rate,"24 h, 10 µM; inhibitor",4.5%
CO[C@H]1CC[C@@H](O[C@H]2C[C@H]([C@]3(C)CC[C@]4(C[C@H](O)[C@@H](C)[C@@H]([C@@H](C)/C=C(\C)C(=O)[C@H](C)C[C@H](C)C(=O)O)O4)O3)O[C@]3(O[C@@H]([C@H]4O[C@@](O)(CO)[C@H](C)C[C@@H]4C)C[C@@H]3C)[C@@H]2C)O[C@@H]1C [Nanchangmycin],229E Inhibition rate,"24 h, 10 µM, inhibitor",0.6%
COC(=O)[C@]1(C)CC[C@]2(C)CC[C@]3(C)C4=CC=C5C(=CC(=O)C(O)=C5C)[C@]4(C)CC[C@@]3(C)[C@@H]2C1 [Pristimerin],229E Inhibition rate,"24 h, 10 µM; inhibitor",0.7%
CCC1(O)C(=O)OCc2c1cc1n(c2=O)Cc2cc3cc(O)ccc3nc2-1 (racemic) [(±)-10-Hydroxycamptothecin],229E Inhibition rate,"24 h, 10 µM; inhibitor",8.6
O=C(O)[C@H]1O[C@@H](Oc2cc3oc(-c4ccc(O)cc4)cc(=O)c3c(O)c2O)[C@H](O)[C@@H](O)[C@@H]1O [Scutellarin],229E Inhibition rate,"24 h, 10 µM; inhibitor",20.3
COc1cc(CNC(=O)CCCCCC(C)C)ccc1O [Nordihydrocapsaicin],229E Inhibition rate,"24 h, 10 µM; inhibitor",28.7%
C[C@@H]1CC[C@@]2(NC1)O[C@H]1C[C@H]3[C@@H]4CC=C5C[C@@H](O[C@@H]6O[C@H](CO)[C@@H](O[C@@H]7O[C@@H](C)[C@H](O)[C@@H](O)[C@H]7O)[C@H](O)[C@H]6O)CC[C@]5(C)[C@H]4CC[C@]3(C)[C@H]1[C@@H]2C [Khasianine],229E Inhibition rate,"24 h, 10 µM; inhibitor",26.5%
COC1=CC(=O)O[C@@H](CCc2ccccc2)C1 [Dihydrokavain],229E Inhibition rate,"24 h, 10 µM; inhibitor",11.2%
CC1(C)OC1COc1c2occc2cc2ccc(=O)oc12 (centres unmarked) [Oxyimperatorin],229E Inhibition rate,"24 h, 10 µM; inhibitor",9.8%
COc1cc(CCN)ccc1O [3-Methoxytyramine],229E Inhibition rate,"24 h, 10 µM, inhibitor",7.5%
CC[C@@H](C)[C@@H]1NC(=O)[C@@H]2CCCN2C(=O)[C@H](Cc2ccccc2)N(C)C(=O)[C@H](Cc2ccccc2)NC(=O)[C@H](C(C)C)N(C)C(=O)[C@@H]([C@H](C)CC)OC(=O)[C@H](C(C)(C)O)N(C)C(=O)[C@H](CC(C)C)NC(=O)[C@H](C(C)C)N(C)C1=O [Aureobasidin A] (cyclo(F[NMeF]P[aIle][NMeV]L[NMeVal(β-OH)][X1][NMeV])),229E Inhibition rate,"24 h, 10 µM; inhibitor",22.7%
Nc1ncnc2c1ncn2[C@@H]1O[C@H](COP(N)(=O)O)[C@@H](O)[C@H]1O [Adenosine 5′-monophosphoramidate (sodium)],229E Inhibition rate,"24 h, 10 µM; inhibitor",32.5%
C/C=C1/C[C@@H](C)[C@@](C)(O)C(=O)OCC2=CCN3CC[C@@H](OC1=O)[C@@H]23 [Senecionine],229E Inhibition rate,"24 h, 10 µM; inhibitor",6.8%
C[C@]12CC[C@H](OS(=O)(=O)O)CC1=CC[C@@H]1[C@@H]2CC[C@]2(C)C(=O)CC[C@@H]12 [Dehydroepiandrosterone sulfate (sodium salt)],229E Inhibition rate,"24 h, 10 µM; inhibitor",0%
NC(=O)NCCCC[C@H](N)C(=O)O [L-Homocitrulline],229E Inhibition rate,"24 h, 10 µM; inhibitor",20.7
C=C1C(=O)O[C@@H]2[C@H]3C(C)=CC[C@@]34O[C@@]4(C)CC[C@@H]12 [Arglabin],229E Inhibition rate,"24 h, 10 µM; inhibitor",30.7
Cc1cccc(C=O)c1 [m-Tolualdehyde],229E Inhibition rate,"24 h, 10 µM; inhibitor",7.5%
C[C@@H]1CC[C@@]2(OC1)O[C@H]1C[C@H]3[C@@H]4CC=C5C[C@@H](O[C@@H]6O[C@H](CO)[C@@H](O[C@@H]7O[C@@H](C)[C@H](O[C@@H]8O[C@@H](C)[C@H](O)[C@@H](O)[C@H]8O)[C@@H](O)[C@H]7O)[C@H](O)[C@H]6O[C@@H]6O[C@@H](C)[C@H](O)[C@@H](O)[C@H]6O)CC[C@]5(C)[C@H]4CC[C@]3(C)[C@H]1[C@@H]2C [Formosanin C],229E Inhibition rate,"24 h, 10 µM; inhibitor",12.7%

# Nothing new here: an excerpt of the list.
compound,measurement,setting,value
CC(=O)OC(C)(C)/C=C/C(=O)[C@](C)(O)[C@H]1[C@H](O)C[C@@]2(C)[C@@H]3CC=C4[C@H](C[C@H](O)C(=O)C4(C)C)[C@]3(C)C(=O)C[C@]12C [Cucurbitacin B],229E Inhibition rate,"24 h, 10 µM; inhibitor",36.8%
CC1=C[C@@H]2C(=O)[C@]3(C=C(C)[C@H](O)[C@@]3(O)[C@@H]1O)[C@H](C)C[C@@H]1[C@H]2C1(C)C [20-Deoxyingenol],229E Inhibition rate,"24 h, 10 µM; inhibitor",10.8%
CC(C)=CCCC1=CC(=O)c2c(O)ccc(O)c2C1=O [Deoxyshikonin],229E Inhibition rate,"24 h, 10 µM; inhibitor",9.8%
CCC(=O)c1cc2c(cc1O)OCO2 [Kakuol],229E Inhibition rate,"24 h, 10 µM; inhibitor",8.6%
N[C@@H](CNC(=O)C(=O)O)C(=O)O [Dencichine],229E Inhibition rate,"24 h, 10 µM; inhibitor",6.8%
CCN1C[C@]2(COC)[C@H](O)C[C@H](OC)[C@@]34[C@@H]5C[C@]6(O)[C@@H](OC)C[C@@](OC(C)=O)([C@H]5[C@H]6OC(=O)c5ccccc5)[C@@H]([C@H](OC)[C@H]23)[C@@H]14 [Indaconitine],229E Inhibition rate,"24 h, 10 µM; inhibitor",10.3%
Cc1ccc(C=O)cc1 [p-Tolualdehyde],229E Inhibition rate,"24 h, 10 µM; inhibitor",23.1
